Assay results as given in patent US20150164910A1, “ANTIVIRAL COMPOUNDS AND METHODS OF USE” (The Regents of the University of Califonia, priority 2012, published 2015).
Structures can show the parent of a compound that is named as a salt. Where two headings read alike, the source gives them in different places.

How the values were obtained:
[1] = tested on: eGFP-expressing recombinant CVB3; type: cell-based, coxsackievirus B3; conditions: eGFP-CVB3 m.o.i=1, compound added at time of infection, 6 hr post infection; 1-(% eGFP+ cells with compound/% with DMSO only)
[2] = chronic therapy 80 mg/day fluoxetine; cited from earlier work
[3] = tested on: coxsackievirus B3 (CVB3); test: Cell viability assay, prevention of cell death caused by CVB3 infection; type: cell-based; conditions: Enterovirus B
Protocol: Procedure: Enteroviruses rapidly cause cell death, and a cell viability assay was used to examine the cytotoxicity of each compound and to identify the concentration needed to prevent cell death caused by coxsackievirus B3 (CVB3) infection.
Compounds were diluted two-fold and added to wells of 384 well plate. HeLa-RW cells were then added (cytotoxicity testing), or cells and CVB3 were added to provide a low multiplicity of infection to determine concentration of peak activity or 50% maximal concentration. Selectivity index is defined as the 50% Cytotoxic concentration/50% activity concentration

CNCCC(Oc1ccc(C(F)(F)F)cc1)c1ccccc1 (centres unmarked) [Compound 72, N-Methyl-3-phenyl-3-[4-(trifluoromethyl)phenoxy]-1-propanamine hydrochloride (1:1), reference compound]
Inhibition of infected cells [1]: 99.7%
Concentrations achieved during chronic therapy [2]: 1000 µM
IC50 ([3]; read-out: 50% activity concentration (IC50)): 2.34 µM
IC50 ([3]; read-out: IC50 values estimated): 2.34 µM
EC (peak activity) ([3]; read-out: Peak Activity Conc.): 6.25 µM
